The target of assay [1] is p85α (regulatory subunit of PI3K), endogenous in HL-1 cells (mouse (endogenous in HL-1)) (UniProt P26450). The assay can be described thus: co-IP; endogenous proteins in HL-1 or HEK293T lysate; COIP buffer (50 mM Tris-HCl, 150 mM NaCl, 5 mM EDTA, 1% NP-40, pH 7.6); indicated antibody and Protein G agarose beads overnight at 4 °C; Western blot. For orientation: Immunoblotting shows a protein as a band on a membrane.

Chains of the proteins cited; added tags and fusions are not shown.
UniProt P26450: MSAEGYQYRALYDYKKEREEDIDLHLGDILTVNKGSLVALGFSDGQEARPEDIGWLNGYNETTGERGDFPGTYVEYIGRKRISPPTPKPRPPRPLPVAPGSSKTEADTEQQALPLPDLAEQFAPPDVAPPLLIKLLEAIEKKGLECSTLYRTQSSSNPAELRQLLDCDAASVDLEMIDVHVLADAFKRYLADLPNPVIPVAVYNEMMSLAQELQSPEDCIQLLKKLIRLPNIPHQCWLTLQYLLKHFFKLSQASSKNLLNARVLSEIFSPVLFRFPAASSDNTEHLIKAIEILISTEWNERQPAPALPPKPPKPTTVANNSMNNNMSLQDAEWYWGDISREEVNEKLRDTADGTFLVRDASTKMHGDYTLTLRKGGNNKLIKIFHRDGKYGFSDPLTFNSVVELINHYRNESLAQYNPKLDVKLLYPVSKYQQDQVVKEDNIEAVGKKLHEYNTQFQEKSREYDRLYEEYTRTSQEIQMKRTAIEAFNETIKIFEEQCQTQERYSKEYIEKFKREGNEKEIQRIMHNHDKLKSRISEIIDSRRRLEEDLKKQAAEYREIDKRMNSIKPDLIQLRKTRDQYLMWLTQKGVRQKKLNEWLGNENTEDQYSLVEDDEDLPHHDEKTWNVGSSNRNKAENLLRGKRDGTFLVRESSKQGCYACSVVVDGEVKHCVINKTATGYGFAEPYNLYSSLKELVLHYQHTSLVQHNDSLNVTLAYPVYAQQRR
UniProt P27986: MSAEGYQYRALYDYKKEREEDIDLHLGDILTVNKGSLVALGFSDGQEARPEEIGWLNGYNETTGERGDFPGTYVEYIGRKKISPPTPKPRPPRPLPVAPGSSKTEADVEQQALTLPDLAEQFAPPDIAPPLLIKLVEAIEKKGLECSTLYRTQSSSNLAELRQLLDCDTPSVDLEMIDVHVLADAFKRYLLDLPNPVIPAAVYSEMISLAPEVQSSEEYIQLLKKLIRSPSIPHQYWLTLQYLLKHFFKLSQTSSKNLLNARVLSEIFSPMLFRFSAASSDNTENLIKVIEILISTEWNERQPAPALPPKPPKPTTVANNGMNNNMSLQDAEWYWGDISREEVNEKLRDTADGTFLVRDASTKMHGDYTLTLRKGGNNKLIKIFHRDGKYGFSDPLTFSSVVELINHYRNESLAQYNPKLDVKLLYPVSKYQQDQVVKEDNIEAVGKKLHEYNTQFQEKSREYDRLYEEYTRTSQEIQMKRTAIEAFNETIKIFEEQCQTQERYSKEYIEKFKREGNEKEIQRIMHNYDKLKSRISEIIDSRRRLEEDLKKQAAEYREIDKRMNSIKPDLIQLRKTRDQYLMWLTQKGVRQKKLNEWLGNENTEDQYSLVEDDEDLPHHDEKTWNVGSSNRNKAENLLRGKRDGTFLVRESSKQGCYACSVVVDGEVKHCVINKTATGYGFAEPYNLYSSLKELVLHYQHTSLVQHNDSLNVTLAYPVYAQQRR
UniProt Q61510: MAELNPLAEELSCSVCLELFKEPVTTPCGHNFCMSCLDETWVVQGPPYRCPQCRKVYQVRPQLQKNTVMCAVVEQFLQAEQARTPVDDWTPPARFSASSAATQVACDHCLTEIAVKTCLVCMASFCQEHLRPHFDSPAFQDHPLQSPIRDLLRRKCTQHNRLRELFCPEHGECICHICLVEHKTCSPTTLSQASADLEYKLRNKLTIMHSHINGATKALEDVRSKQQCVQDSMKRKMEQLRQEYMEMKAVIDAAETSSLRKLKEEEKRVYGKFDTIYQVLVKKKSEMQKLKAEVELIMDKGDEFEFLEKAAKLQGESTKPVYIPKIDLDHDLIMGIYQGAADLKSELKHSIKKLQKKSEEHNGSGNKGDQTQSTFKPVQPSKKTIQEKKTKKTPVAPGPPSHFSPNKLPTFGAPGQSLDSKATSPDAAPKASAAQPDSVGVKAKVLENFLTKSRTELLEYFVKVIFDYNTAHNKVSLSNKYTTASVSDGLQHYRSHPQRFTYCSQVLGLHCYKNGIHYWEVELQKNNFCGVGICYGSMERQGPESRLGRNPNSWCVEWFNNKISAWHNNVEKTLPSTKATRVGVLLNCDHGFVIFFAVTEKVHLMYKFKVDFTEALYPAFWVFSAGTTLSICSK
UniProt Q14258: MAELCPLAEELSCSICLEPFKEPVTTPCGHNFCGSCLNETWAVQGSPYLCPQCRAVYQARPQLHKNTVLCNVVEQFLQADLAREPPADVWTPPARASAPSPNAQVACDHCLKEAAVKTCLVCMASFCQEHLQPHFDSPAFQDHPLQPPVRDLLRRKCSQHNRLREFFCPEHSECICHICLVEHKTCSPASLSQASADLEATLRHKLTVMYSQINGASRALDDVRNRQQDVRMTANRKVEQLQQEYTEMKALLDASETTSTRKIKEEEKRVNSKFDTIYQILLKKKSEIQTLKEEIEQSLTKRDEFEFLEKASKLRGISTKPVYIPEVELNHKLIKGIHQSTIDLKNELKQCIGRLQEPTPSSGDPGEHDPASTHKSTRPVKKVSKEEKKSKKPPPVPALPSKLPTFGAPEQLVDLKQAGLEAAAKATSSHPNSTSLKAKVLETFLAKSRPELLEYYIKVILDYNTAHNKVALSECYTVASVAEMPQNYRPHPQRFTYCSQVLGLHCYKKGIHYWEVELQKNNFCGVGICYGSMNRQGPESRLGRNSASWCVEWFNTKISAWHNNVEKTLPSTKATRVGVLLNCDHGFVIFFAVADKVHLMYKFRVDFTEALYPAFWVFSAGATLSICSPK

Assay [2] has as its target Glutathione S-transferase (GST)–fused p85α (UniProt P26450). The assay can be described thus: pull-down; Pierce GST Protein Interaction Pull-Down Kit; purified GST-p85α (bait, about 150 ug) on the spin column at 4 °C for 30 min, His-TRIM25 (prey) incubated at 4 °C for 1 h; five washes; Coomassie blue staining or Western blot; both purified.
For assay [3], the target named is p85α, endogenous in HEK293T cells (human (endogenous in HEK293T)) (UniProt P27986). Nature of the assay: co-IP; endogenous proteins in HL-1 or HEK293T lysate; COIP buffer (50 mM Tris-HCl, 150 mM NaCl, 5 mM EDTA, 1% NP-40, pH 7.6); indicated antibody and Protein G agarose beads overnight at 4 °C; Western blot.
In assay [4] the target is 3Flag-p85α (UniProt P26450). The assay can be described thus: co-IP; Supplementary Fig. 7; cells and constructs not told in the text shown.
In assay [5] the target is full-length p85α, overexpressed in HEK293 cells (UniProt P26450). Nature of the assay: co-IP; HEK293 cells overexpressing full-length or truncated TRIM25 or p85α; immunoprecipitated with the indicated antibody; Western blot.
Assay [6] addresses p85α, partner of the TRIM25 truncates in HEK293 cells (Fig. 3c) (UniProt P27986). The description is as above.
For assay [7], the target named is 3Flag-p85α (UniProt P26450). Nature of the assay: co-IP; 293T cells with XBP-1s and p85α-Flag, with or without DOX (1 uM); Flag immunoprecipitates blotted for Flag and XBP-1s.

These are yes or no findings as the source states them, for the method shown. For some of these results: Binding seen in cells or lysates may run through a third protein. Some binding calls cover weakened binding; strength is not graded here.

With “TRIM25, endogenous in HL-1 cells (from UniProt Q61510 1-634)”, the binding entry in assay [1] was “binds”.

For the molecule “His-fused TRIM25 (from UniProt Q61510 1-634)”, in assay [2], the binding entry is given as “binds”.

For “TRIM25, endogenous in HEK293T cells (from UniProt Q14258 1-630)”, the binding entry (in assay [3]; in the assay with 3Flag-p85α [4]) was “binds” each time.

“TRIM25, partner of full-length and truncated p85α in HEK293 cells (Fig. 3d) (from UniProt Q14258 1-630)”: the binding result in assay [5] is “binds”.

Regarding “full-length TRIM25, overexpressed in HEK293 cells (from UniProt Q61510 1-634)”, the binding entry in assay [6] is “binds”.

B1: XBP-1s (spliced form of XBP-1) (protein, UniProt P17861-2 1-376)
chain: MVVVAAAPNPADGTPKVLLLSGQPASAAGAPAGQALPLMVPAQRGASPEAASGGLPQARKRQRLTHLSPEEKALRRKLKNRVAAQTARDRKKARMSELEQQVVDLEEENQKLLLENQLLREKTHGLVVENQELRQRLGMDALVAEEEAEAKGNEVRPVAGSAESAAGAGPVVTPPEHLPMDSGGIDSSDSESDILLGILDNLDPVMFFKCPSPEPASLEELPEVYPEGPSSLPASLSLSVGTSSAKLEAINELIRFDHIYTKPLVLEIPSETESQANVVVKIEEAPLSPSENDHPEFIVSVKEEPVEDDLVPELGISNLLSSSHCPKPSSCLLDAYSDCGYGGSLSPFSDMSSLLGVNHSWEDTFANELFPQLISV
For B1, the binding result in the assay with 3Flag-p85α [7] is “binds”.

(Values after publication PMC9308790.)
